These are yes or no findings as the source states them, for the method shown. In cells and extracts the contact can be indirect. Some results given as binding are weak or reduced against the parent protein; the word gives no strength.

The target in assay [1] is T1, TRAIL Death Receptor 5 (DR5) (human (endogenous in A549)), O14763. The experiment in a line: co-IP; anti-DR5 immunoprecipitation from lysates of A549 cells transiently overexpressing myc-Hsp70, treated with vehicle (DMSO) or with 50 uM apigenin for 18 h then 100 ng/ml TRAIL for 6 h; blots as in Fig. 5a. The settings on record: remark: other sources report otherwise.
In assay [2] the target is T1, TRAIL Death Receptor 5 (DR5) (human …). The experiment in a line: co-IP; anti-DR5 immunoprecipitation from lysates of A549 cells pretreated with 50 uM apigenin for 18 h, then 25 or 100 ng/ml TRAIL or DMSO for 6 h; NP-40 buffer with 20 mM Tris-Cl, 150 mM NaCl, 1% NP-40, 10% glycerol; blots with anti-Hsp70, anti-caspase-8, anti-FADD and anti-DR5. The settings on record: remark: other sources report otherwise.

B1: caspase-8, Q14790 1-479 (enzyme)
chain: MDFSRNLYDIGEQLDSEDLASLKFLSLDYIPQRKQEPIKDALMLFQRLQEKRMLEESNLSFLKELLFRINRLDLLITYLNTRKEEMERELQTPGRAQISAYRVMLYQISEEVSRSELRSFKFLLQEEISKCKLDDDMNLLDIFIEMEKRVILGEGKLDILKRVCAQINKSLLKIINDYEEFSKERSSSLEGSPDEFSNGEELCGVMTISDSPREQDSESQTLDKVYQMKSKPRGYCLIINNHNFAKAREKVPKLHSIRDRNGTHLDAGALTTTFEELHFEIKPHDDCTVEQIYEILKIYQLMDHSNMDCFICCILSHGDKGIIYGTDGQEAPIYELTSQFTGLKCPSLAGKPKVFFIQACQGDNYQKGIPVETDSEEQPYLEMDLSSPQTRYIPDEADFLLGMATVNNCVSYRNPAEGTWYIQSLCQSLRERCPRGDDILTILTEVNYEVSNKDDKKNMGKQMPQPTFTLRKKLVFPSD
Turning to B1, the binding entry in assay [1] and in assay [2] was “binds” throughout.

Values taken from paper PMC7969956.
